Laboratory results as given in PMC8471926.
Results are given in words; binding and its absence hold for the method and conditions named. In cells and extracts the contact can be indirect. Some binding calls cover weakened binding; strength is not graded here.

By UniProt entry, the sequences of proteins in these tests, tags left out. Where a name states a change or a piece, a line headed by the entry shows the natural chain unless it says otherwise.
UniProt O60934: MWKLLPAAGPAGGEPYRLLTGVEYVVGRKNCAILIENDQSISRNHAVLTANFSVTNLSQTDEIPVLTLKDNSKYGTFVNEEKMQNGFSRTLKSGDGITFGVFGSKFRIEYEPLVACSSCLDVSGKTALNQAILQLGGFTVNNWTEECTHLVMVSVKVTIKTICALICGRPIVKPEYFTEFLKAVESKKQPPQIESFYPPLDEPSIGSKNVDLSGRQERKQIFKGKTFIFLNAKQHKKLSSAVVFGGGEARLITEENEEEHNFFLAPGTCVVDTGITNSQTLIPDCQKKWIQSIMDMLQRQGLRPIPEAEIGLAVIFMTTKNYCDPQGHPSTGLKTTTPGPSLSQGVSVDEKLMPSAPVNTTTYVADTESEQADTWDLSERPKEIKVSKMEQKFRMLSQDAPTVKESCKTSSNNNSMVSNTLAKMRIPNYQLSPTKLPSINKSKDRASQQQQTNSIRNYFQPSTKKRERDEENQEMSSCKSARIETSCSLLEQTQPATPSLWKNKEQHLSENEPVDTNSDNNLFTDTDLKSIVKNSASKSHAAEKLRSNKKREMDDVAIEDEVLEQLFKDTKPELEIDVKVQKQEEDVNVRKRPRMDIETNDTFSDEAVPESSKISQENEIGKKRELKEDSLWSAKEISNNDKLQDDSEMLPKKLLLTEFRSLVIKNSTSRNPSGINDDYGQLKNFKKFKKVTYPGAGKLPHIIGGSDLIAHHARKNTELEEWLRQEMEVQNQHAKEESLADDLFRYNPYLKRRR
UniProt Q00987: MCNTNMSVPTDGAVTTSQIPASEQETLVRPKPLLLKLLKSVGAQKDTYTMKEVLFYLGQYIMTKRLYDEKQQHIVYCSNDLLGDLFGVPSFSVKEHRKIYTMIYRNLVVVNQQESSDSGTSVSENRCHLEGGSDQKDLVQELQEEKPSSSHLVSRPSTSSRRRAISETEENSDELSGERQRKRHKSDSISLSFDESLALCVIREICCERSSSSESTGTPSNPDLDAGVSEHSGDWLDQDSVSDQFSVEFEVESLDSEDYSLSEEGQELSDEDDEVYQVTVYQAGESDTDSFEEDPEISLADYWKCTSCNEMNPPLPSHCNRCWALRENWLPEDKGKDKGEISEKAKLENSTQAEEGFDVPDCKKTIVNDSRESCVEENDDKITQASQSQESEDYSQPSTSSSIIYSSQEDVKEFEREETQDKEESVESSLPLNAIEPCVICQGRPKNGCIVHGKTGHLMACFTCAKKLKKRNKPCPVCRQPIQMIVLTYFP

Target: NBN (human (endogenous in H1299)) (UniProt O60934)
Experiment: proximity ligation; H1299 cells expressing exogenous MDM2 (GFP co-transfection marker), 40 min after 150 nM NCS; fixed with methanol; Duolink In Situ Detection Reagents Red with anti-mouse MINUS and anti-rabbit PLUS probes; confocal microscopy, PLA foci per nucleus

## MDM2 K454A (from UniProt Q00987 1-491)
  binding: binds

## MDM2 WT (from UniProt Q00987 1-491)
  binding: binds
